# Test results reported in doi:10.1101/2024.01.05.574302 (bioRxiv, 2024).
# Amino acid sequences for entries named in this document (tags omitted). Residues count along the entry.
# APC-SAMP1 (aa 1546-1597) (P25054, residues 1546-1597): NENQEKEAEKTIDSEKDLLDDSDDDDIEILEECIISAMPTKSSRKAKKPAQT
# APC-SAMP2 (aa 1705-1754) (P25054, residues 1705-1754): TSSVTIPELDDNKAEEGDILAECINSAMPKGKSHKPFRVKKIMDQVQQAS
# APC-SAMP3 (aa 2009-2074) (P25054, residues 2009-2074): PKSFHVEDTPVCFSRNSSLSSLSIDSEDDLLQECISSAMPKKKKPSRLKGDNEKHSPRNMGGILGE
# Read-outs that look alike come from different tables or passages of the source. These are yes or no findings as the source states them, for the method shown. For some assays here: Binding seen in cells or lysates may run through a third protein. Some binding calls cover weakened binding; strength is not graded here. For some assays here: Where a sequence is shown, tags or fusion partners need not be part of it.
# Legend:
# [1] = target: T1, ASAP1 SH3 domain (aa. 1083-1147) (mouse, UniProt Q9QWY8 1083-1147); test: ITC
# T1 sequence (looked up): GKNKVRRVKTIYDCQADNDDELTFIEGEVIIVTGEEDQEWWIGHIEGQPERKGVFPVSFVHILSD
# [2] = target: T2, gAnkB (aa. 1476-1727) fragment of the neurospecific domain, Trx-His6-3×StrepII fusion (human) (UniProt Q01484); test: pull-down
# T2 sequence: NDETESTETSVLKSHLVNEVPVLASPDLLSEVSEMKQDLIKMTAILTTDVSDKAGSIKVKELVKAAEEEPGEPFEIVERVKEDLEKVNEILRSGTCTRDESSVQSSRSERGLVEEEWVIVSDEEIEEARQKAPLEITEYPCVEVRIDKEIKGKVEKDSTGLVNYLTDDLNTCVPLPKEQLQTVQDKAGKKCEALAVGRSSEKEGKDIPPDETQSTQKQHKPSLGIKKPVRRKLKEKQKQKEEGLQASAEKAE
binding [1],binding ([1]; record 2),binding [2],Substance
binds,binds,,APC-SAMP2 (aa 1705-1754) (from UniProt P25054 1705-1754) (domain or fragment)
,,binds,Flag-tagged full-length ASAP1 (from UniProt Q9QWY8 1-1147)
binds,,,APC-SAMP3 (aa 2009-2074) (from UniProt P25054 2009-2074) (domain or fragment)
binds,,,APC-SAMP1 (aa 1546-1597) (from UniProt P25054 1546-1597) (domain or fragment)
